For test [1], the target named is Mindbomb-1 (Mib1), endogenous in mouse gastrocnemius muscle (mouse (endogenous in gastrocnemius muscle)) (UniProt Q80SY4). Kind of test: co-IP; endogenous IP from GA muscle lysates of 3-month-old WT mice with anti-Mib1 and anti-Actn3 antibody; mouse and rabbit IgG as nonspecific control.
The target of test [2] is Mindbomb-1 (Mib1), tagged full-length mouse construct expressed in transfected cells (mouse) (UniProt Q80SY4). Kind of test: co-IP; immunoprecipitation of tagged Mib1 and Actn3 (Supplementary Fig. 3a); IP buffer 0.5% or 0.05% Nonidet P-40, 2 mM EDTA, 10% glycerol in PBS; overnight at 4 °C.

The chains behind the UniProt entries cited, without tags or fusion partners.
UniProt Q80SY4: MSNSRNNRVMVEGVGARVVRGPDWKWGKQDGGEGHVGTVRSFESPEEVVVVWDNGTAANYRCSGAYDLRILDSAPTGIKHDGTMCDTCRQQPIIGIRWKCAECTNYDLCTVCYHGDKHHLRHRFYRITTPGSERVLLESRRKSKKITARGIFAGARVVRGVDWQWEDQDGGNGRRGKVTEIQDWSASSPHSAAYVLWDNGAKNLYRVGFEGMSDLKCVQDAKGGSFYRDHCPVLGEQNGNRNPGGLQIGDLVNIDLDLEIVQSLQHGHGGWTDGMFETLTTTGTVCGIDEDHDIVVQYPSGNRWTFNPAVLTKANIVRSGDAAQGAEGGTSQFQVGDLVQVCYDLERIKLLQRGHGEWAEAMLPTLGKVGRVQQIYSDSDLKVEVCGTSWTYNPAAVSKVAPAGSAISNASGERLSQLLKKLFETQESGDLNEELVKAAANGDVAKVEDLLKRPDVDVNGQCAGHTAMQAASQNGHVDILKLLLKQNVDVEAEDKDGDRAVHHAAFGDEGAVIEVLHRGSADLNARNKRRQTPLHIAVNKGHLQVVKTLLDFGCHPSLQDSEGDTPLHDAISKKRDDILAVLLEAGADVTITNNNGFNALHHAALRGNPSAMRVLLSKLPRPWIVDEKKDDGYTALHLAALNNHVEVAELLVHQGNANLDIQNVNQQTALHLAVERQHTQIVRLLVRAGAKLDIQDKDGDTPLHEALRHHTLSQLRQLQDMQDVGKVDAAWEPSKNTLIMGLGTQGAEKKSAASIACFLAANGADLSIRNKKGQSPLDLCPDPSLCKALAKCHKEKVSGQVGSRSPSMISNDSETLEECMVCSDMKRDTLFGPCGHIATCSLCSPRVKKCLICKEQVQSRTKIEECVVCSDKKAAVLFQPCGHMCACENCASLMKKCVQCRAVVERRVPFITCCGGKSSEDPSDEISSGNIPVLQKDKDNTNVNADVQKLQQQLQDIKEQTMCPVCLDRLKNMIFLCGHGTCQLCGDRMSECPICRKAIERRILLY
UniProt O88990: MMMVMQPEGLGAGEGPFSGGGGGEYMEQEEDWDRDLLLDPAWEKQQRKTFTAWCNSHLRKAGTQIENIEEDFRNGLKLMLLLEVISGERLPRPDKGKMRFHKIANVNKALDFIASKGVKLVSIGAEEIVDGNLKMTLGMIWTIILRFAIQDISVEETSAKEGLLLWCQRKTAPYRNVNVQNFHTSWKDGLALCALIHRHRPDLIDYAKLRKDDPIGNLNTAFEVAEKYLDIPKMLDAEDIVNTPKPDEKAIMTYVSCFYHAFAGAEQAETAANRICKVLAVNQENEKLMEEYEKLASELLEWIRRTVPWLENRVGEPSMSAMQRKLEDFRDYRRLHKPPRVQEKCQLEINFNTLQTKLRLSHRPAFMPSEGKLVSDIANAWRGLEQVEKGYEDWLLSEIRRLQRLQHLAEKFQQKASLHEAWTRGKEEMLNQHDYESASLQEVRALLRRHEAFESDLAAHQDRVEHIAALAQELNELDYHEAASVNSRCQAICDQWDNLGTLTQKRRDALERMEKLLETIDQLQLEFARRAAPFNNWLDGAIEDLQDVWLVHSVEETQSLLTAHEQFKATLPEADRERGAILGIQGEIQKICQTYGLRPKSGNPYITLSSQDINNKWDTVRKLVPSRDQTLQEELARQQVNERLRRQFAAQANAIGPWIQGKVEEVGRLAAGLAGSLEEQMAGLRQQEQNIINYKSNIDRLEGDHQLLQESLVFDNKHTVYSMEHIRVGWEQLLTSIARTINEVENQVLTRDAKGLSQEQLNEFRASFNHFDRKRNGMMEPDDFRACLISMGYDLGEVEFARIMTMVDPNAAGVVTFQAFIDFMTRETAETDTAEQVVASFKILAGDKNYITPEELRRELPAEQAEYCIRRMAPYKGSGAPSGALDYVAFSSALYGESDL

No constants are given. Whether binding was seen depends on the method and setting. In cells and extracts the contact can be indirect. Some results given as binding are weak or reduced against the parent protein; the word gives no strength.

With “α-actinin 3 (Actn3), endogenous in mouse gastrocnemius muscle (from UniProt O88990 1-900)”, the binding result in test [1] was “binds”.
With “α-actinin 3 (Actn3)-MycHis, full-length mouse construct expressed in transfected cells (from UniProt O88990 1-900)”, in test [2], the binding entry is “binds”.

The values above are taken from paper PMC7910585.
